Values are relative to the signal before dosing, not to a vehicle control; the signal also falls without drug.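 Fibroblast labels denote human fibroblasts, mainly primary ones from uterus (C12385, HUF), lung (H6013), bone (Hs27A), adrenal (HADF) and skin (WS1), plus mammary HMF and breast cancer-associated Hs343T. Cancer cells are basal-like or mesenchymal-like triple-negative breast cancer lines. A hit is a response shift exceeding 3x replicate standard deviation. The tissue of the other fibroblasts is not given here.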
Tested on: HCC1143
Assay: relative JC-1 red fluorescence (viability) vs pre-drug, coculture with fibroblast (fraction); higher = more viable cancer cells
Method: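 JC-1 labelled TNBC cells cocultured 1:1 (1,500 cells each) with CellTrace Violet stained primary or stromal fibroblasts in 384-well plates in FluoroBrite medium, treated with one of 42 anticancer drugs at 0.1, 1, 10 or 100 uM. JC-1 red fluorescence (mitochondrial integrity in cancer cells only) was read by plate reader every 8 h for 72 h. Values are normalised to each well's pre-drug value. The stock of one drug was tenfold lower, so its dose labels may be too high.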

CC(=O)O[C@@]12CO[C@@H]1C[C@H](O)[C@@]1(C)C(=O)[C@H](O)C3=C(C)[C@@H](OC(=O)[C@H](O)[C@@H](NC(=O)OC(C)(C)C)c4ccccc4)C[C@@](O)([C@@H](OC(=O)c4ccccc4)[C@H]21)C3(C)C [Docetaxel]
relative JC-1 red fluorescence
Details | 8 h | 16 h | 24 h | 32 h | 40 h | 48 h | 56 h | 64 h | 72 h
0.1 µM, coculture fibroblast: C12385 | 0.822 | 0.686 | 0.57 | 0.478 | 0.379 | 0.335 | 0.298 | 0.285 | 0.293
0.1 µM, coculture fibroblast: H6013 | 0.79 | 0.735 | 0.691 | 0.674 | 0.608 | 0.608 | 0.589 | 0.592 | 0.52
0.1 µM, coculture fibroblast: H6019 | 0.792 | 0.682 | 0.597 | 0.513 | 0.465 | 0.447 | 0.413 | 0.388 | 0.363
0.1 µM, coculture fibroblast: H6076 | 0.8023 | 0.807 | 0.737 | 0.695 | 0.616 | 0.596 | 0.57 | 0.554 | 0.564
0.1 µM, coculture fibroblast: H6231 | 0.8206 | 0.769 | 0.661 | 0.613 | 0.529 | 0.491 | 0.449 | 0.4181 | 0.4148
0.1 µM, coculture fibroblast: HADF | 0.7618 | 0.691 | 0.655 | 0.626 | 0.54 | 0.531 | 0.502 | 0.496 | 0.428
0.1 µM, coculture fibroblast: HCFa | 0.78 | 0.697 | 0.641 | 0.588 | 0.502 | 0.471 | 0.418 | 0.385 | 0.323
0.1 µM, coculture fibroblast: HCPF | 0.827 | 0.801 | 0.72 | 0.641 | 0.595 | 0.546 | 0.495 | 0.457 | 0.446
0.1 µM, coculture fibroblast: HHSteC | 0.817 | 0.736 | 0.677 | 0.614 | 0.528 | 0.494 | 0.45 | 0.428 | 0.364
0.1 µM, coculture fibroblast: HMF | 0.80705 | 0.837 | 0.753 | 0.6579 | 0.576 | 0.521 | 0.455 | 0.416 | 0.4
0.1 µM, coculture fibroblast: HPFa | 0.897 | 0.766 | 0.7076 | 0.6 | 0.543 | 0.525 | 0.471 | 0.455 | 0.442
0.1 µM, coculture fibroblast: HUF | 0.873 | 0.7423 | 0.642 | 0.554 | 0.489 | 0.451 | 0.403 | 0.383 | 0.366
0.1 µM, coculture fibroblast: Hs5 | 0.85501 | 0.835 | 0.783 | 0.757 | 0.66 | 0.625 | 0.598 | 0.565 | 0.576
0.1 µM, coculture fibroblast: Hs27A | 0.7 | 0.582 | 0.526 | 0.513 | 0.395 | 0.389 | 0.357 | 0.344 | 0.288
0.1 µM, coculture fibroblast: Hs343T | 0.799 | 0.797 | 0.749 | 0.705 | 0.616 | 0.569 | 0.505 | 0.476 | 0.465
0.1 µM, coculture fibroblast: WS1 | 0.81 | 0.704 | 0.601 | 0.495 | 0.393 | 0.351 | 0.326 | 0.311 | 0.308
1 µM, coculture fibroblast: C12385 | 0.864 | 0.793 | 0.696 | 0.62 | 0.555 | 0.534 | 0.512 | 0.503 | 0.52
1 µM, coculture fibroblast: H6013 | 0.765 | 0.6757 | 0.632 | 0.616 | 0.548 | 0.549 | 0.533 | 0.537 | 0.477
1 µM, coculture fibroblast: H6019 | 0.789 | 0.689 | 0.637 | 0.573 | 0.538 | 0.532 | 0.507 | 0.484 | 0.471
1 µM, coculture fibroblast: H6076 | 0.81 | 0.754 | 0.736 | 0.7618 | 0.668 | 0.672 | 0.66 | 0.651 | 0.692
1 µM, coculture fibroblast: H6231 | 0.816 | 0.778 | 0.6691 | 0.649 | 0.555 | 0.528 | 0.485 | 0.452 | 0.437
1 µM, coculture fibroblast: HADF | 0.745 | 0.632 | 0.588 | 0.551 | 0.465 | 0.451 | 0.41 | 0.39 | 0.328
1 µM, coculture fibroblast: HCFa | 0.801 | 0.663 | 0.597 | 0.551 | 0.473 | 0.459 | 0.42 | 0.397 | 0.339
1 µM, coculture fibroblast: HCPF | 0.849 | 0.715 | 0.684 | 0.72 | 0.619 | 0.6 | 0.577 | 0.551 | 0.561
1 µM, coculture fibroblast: HHSteC | 0.826 | 0.725 | 0.68 | 0.616 | 0.545 | 0.523 | 0.48 | 0.458 | 0.39
1 µM, coculture fibroblast: HMF | 0.798 | 0.786 | 0.686 | 0.608 | 0.524 | 0.469 | 0.416 | 0.374 | 0.372
1 µM, coculture fibroblast: HPFa | 0.916 | 0.819 | 0.748 | 0.661 | 0.587 | 0.569 | 0.516 | 0.498 | 0.489
1 µM, coculture fibroblast: HUF | 0.885 | 0.771 | 0.737 | 0.658 | 0.605 | 0.601 | 0.558 | 0.539 | 0.535
1 µM, coculture fibroblast: Hs5 | 0.8676 | 0.8201 | 0.764 | 0.728 | 0.617 | 0.576 | 0.54 | 0.512 | 0.508
1 µM, coculture fibroblast: Hs27A | 0.744 | 0.673 | 0.613 | 0.609 | 0.513 | 0.529 | 0.503 | 0.497 | 0.415
1 µM, coculture fibroblast: Hs343T | 0.78711 | 0.732 | 0.659 | 0.608 | 0.512 | 0.455 | 0.413 | 0.399 | 0.399
1 µM, coculture fibroblast: WS1 | 0.795 | 0.661 | 0.593 | 0.491 | 0.425 | 0.403 | 0.3723 | 0.3709 | 0.3764

Reference: the supplement of paper PMC6078165
